Binding data for two substances are collected here from paper PMC7401384.

Chains of the proteins cited; added tags and fusions are not shown. Lines headed by an entry give the natural chain unless they say otherwise; changes in a name come on top.
UniProt F7VVC1: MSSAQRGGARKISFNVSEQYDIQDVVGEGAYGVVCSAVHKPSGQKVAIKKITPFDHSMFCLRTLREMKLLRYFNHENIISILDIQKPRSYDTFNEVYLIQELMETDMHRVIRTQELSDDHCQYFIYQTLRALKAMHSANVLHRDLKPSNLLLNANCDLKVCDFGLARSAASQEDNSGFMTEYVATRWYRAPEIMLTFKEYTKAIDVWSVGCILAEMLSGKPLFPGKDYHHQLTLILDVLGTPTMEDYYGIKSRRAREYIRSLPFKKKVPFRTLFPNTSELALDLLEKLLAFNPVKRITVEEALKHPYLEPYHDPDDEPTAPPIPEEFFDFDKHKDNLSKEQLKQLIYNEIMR

No constants are given. Whether binding was seen depends on the method and setting. A result given as binding can be weak or reduced; the word gives no strength.

The target in assay [1] is MAK2 (Sordaria macrospora) (UniProt F7VVC1). The assay can be described thus: two-hybrid; GAL4 AD (pGADT7) and GAL4 BD (pGBKT7) fusions in yeast PJ69-4alpha and PJ69-4a, mated to diploids; drop plating, growth on SD medium lacking leucine, tryptophan, adenine and histidine.
Assay [2] has as its target MEK2 (Sordaria macrospora) (UniProt F7W4K9). The description is as above.

With HAM5 (from UniProt F7VPN9), the binding result in assay [1] and in assay [2] was “binds” throughout.
MIK2 (from UniProt F7W3M8) (enzyme): the binding result in assay [2] was “binds”.
